US10779537B2, “1H-pyrrolopyridine compound, N-oxide thereof or salt thereof, agricultural and horticultural insecticide comprising the compound, and method for using the insecticide” (Nihon Nohyaku Co., Ltd., priority 2016, dated 2020)
Some entries share one result that the patent states for a list of compounds.

Legend:
Type in all cases: in vivo
Myzus persicae = experiment: Test for control efficacy on Myzus persicae (foliar application, potted Chinese cabbage); details: 500 ppm dispersion in water, foliar application to potted Chinese cabbage, 6 days after application
Laodelphax striatellus = experiment: Insecticidal test on Laodelphax striatellus (rice seedling dip); details: 500 ppm, rice seedlings dipped 30 seconds, ten 3rd-instar larvae, 8 days after inoculation
Description: Insecticidal Test on Laodelphax striatellus
The condensed heterocyclic compounds represented by the general formula (1) of the present invention or salts thereof were separately dispersed in water and diluted to 500 ppm. Rice plant seedlings (variety: Nihonbare) were dipped in the agrochemical dispersions for 30 seconds. After air-dried, each seedling was put into a separate glass test tube and inoculated with ten 3rd-instar larvae of Laodelphax striatellus, and then the glass test tubes were capped with cotton plugs. At 8 days after the inoculation, the numbers of surviving larvae and dead larvae were counted, the corrected mortality rate was calculated according to the formula shown below, and the insecticidal efficacy was evaluated according to the criteria shown below. Corrected mortality rate (%)=100×(Survival rate in a non-treatment plot−Survival rate in a treatment plot)/Survival rate in a non-treatment plot [Math. 2] Corrected Mortality Rate A: the corrected mortality rate is 100%. B: the corrected mortality rate is 90 to 99%. C: the corrected mortality rate is 80 to 89%. D: the corrected mortality rate is 50 to 79%.

Plutella xylostella = experiment: Insecticidal test on Plutella xylostella (dip of Chinese cabbage seedlings with laid eggs); details: 500 ppm, seedlings with laid eggs dipped about 30 seconds, 25° C., 6 days after dip treatment, criteria of Test Example 2
Description: Insecticidal Test on Plutella xylostella
Adults of Plutella xylostella were released onto Chinese cabbage seedlings and allowed to lay eggs thereon. At 2 days after the release of the adults, the Chinese cabbage seedlings with laid eggs were dipped for about 30 seconds in agrochemical dispersions diluted to 500 ppm, each of which contained a different condensed heterocyclic compound represented by the general formula (1) of the present invention as an active ingredient. After air-dried, the seedlings were kept in a thermostatic chamber at 25° C. At 6 days after the dip treatment, the number of hatched larvae per plot was counted, the mortality rate was calculated according to the formula shown below, and the insecticidal efficacy was evaluated according to the criteria of Test Example 2. This test was conducted in triplicate using 10 adults of Plutella xylostella per plot. Corrected mortality rate (%)=100×(Number of hatched larvae in a non-treatment plot−Number of hatched larvae in a treatment plot)/Number of hatched larvae in a non-treatment plot [Math. 3]

Row | SMILES | control efficacy (control rate) (Myzus persicae) | insecticidal efficacy (corrected mortality rate) (Laodelphax striatellus) | insecticidal efficacy (corrected mortality rate, hatched larvae) (Plutella xylostella)
1 | CCS(=O)(=O)c1cc(-c2cccc(Cl)c2)cnc1-c1[nH]c2cc(C(F)(F)F)cnc2c1Cl [Compound 1-105] | A (the control rate is 100%) | A (the corrected mortality rate is 100%) | A (the corrected mortality rate is 100%)
2 | CCS(=O)(=O)c1cc(-c2c(Cl)sc(Cl)c2Cl)cnc1-c1[nH]c2cc(C(F)(F)F)cnc2c1Cl [Compound 1-106] | A (the control rate is 100%) | A (the corrected mortality rate is 100%) | A (the corrected mortality rate is 100%)
3 | CCS(=O)(=O)c1cc(-c2cccnc2)cnc1-c1[nH]c2cc(C(F)(F)F)cnc2c1Cl [Compound 1-107] | A (the control rate is 100%) | A (the corrected mortality rate is 100%) | A (the corrected mortality rate is 100%)
4 | CCS(=O)(=O)c1cc(/C=N/OCC(F)(F)F)cnc1-c1[nH]c2cc(C(F)(F)F)cnc2c1Cl [Compound 1-108] | A (the control rate is 100%) | A (the corrected mortality rate is 100%) | A (the corrected mortality rate is 100%)
5 | CCS(=O)(=O)c1cc(/C=N\OCC(F)(F)F)cnc1-c1[nH]c2cc(C(F)(F)F)cnc2c1Cl [Compound 1-109] | A (the control rate is 100%) | A (the corrected mortality rate is 100%) | A (the corrected mortality rate is 100%)
6 | CCS(=O)(=O)c1cc(/C=N/OCC(F)(F)F)cnc1-c1[nH]c2cc(C(F)(F)F)cnc2c1F [Compound 1-110] | A (the control rate is 100%) | A (the corrected mortality rate is 100%) | A (the corrected mortality rate is 100%)
7 | CCS(=O)(=O)c1cc(/C=N/OCC(F)(F)F)cnc1-c1[nH]c2cc(C(F)(F)F)cnc2c1O [Compound 1-111] | A (the control rate is 100%) | A (the corrected mortality rate is 100%) | A (the corrected mortality rate is 100%)
8 | CCOc1cnc(-c2[nH]c3cc(C(F)(F)F)cnc3c2Cl)c(S(=O)(=O)CC)c1 [Compound 1-112] | A (the control rate is 100%) | A (the corrected mortality rate is 100%) | A (the corrected mortality rate is 100%)
9 | CCS(=O)(=O)c1cc(-c2ccc(F)cc2)cnc1-c1[nH]c2cc(C(F)(F)F)cnc2c1CN(C)C [Compound 1-113] | A (the control rate is 100%) | A (the corrected mortality rate is 100%) | A (the corrected mortality rate is 100%)
10 | CCS(=O)(=O)c1cc(-c2cc(F)cc(F)c2)cnc1-c1[nH]c2cc(C(F)(F)F)cnc2c1F [Compound 1-114] | A (the control rate is 100%) | A (the corrected mortality rate is 100%) | A (the corrected mortality rate is 100%)
11 | CCS(=O)(=O)c1cc(-c2cccc(C#N)c2)cnc1-c1[nH]c2cc(C(F)(F)F)cnc2c1Cl [Compound 1-115] | A (the control rate is 100%) | A (the corrected mortality rate is 100%) | A (the corrected mortality rate is 100%)
12 | CCS(=O)(=O)c1cc(-c2cccc(C(F)(F)F)c2)cnc1-c1[nH]c2cc(C(F)(F)F)cnc2c1C#N [Compound 1-120] | A (the control rate is 100%) | A (the corrected mortality rate is 100%) | A (the corrected mortality rate is 100%)
13 | CCS(=O)(=O)c1cc(-c2ccc(F)c(C)c2)cnc1-c1[nH]c2cc(C(F)(F)F)cnc2c1Cl [Compound 1-121] | A (the control rate is 100%) | A (the corrected mortality rate is 100%) | A (the corrected mortality rate is 100%)
14 | CCS(=O)(=O)c1cc(-c2ccc(Cl)c(F)c2)cnc1-c1[nH]c2cc(C(F)(F)F)cnc2c1Cl [Compound 1-122] | A (the control rate is 100%) | A (the corrected mortality rate is 100%) | A (the corrected mortality rate is 100%)
15 | CCS(=O)(=O)c1cc(-c2ccc(F)c(Cl)c2)cnc1-c1[nH]c2cc(C(F)(F)F)cnc2c1Cl [Compound 1-123] | A (the control rate is 100%) | A (the corrected mortality rate is 100%) | A (the corrected mortality rate is 100%)
16 | CCS(=O)(=O)c1cc(-c2cc(C(F)(F)F)ccc2F)cnc1-c1[nH]c2cc(C(F)(F)F)cnc2c1Cl [Compound 1-124] | A (the control rate is 100%) | A (the corrected mortality rate is 100%) | A (the corrected mortality rate is 100%)
17 | CCc1ccc(-c2cnc(-c3[nH]c4cc(C(F)(F)F)cnc4c3Cl)c(S(=O)(=O)CC)c2)cc1 [Compound 1-125] | A (the control rate is 100%) | A (the corrected mortality rate is 100%) | A (the corrected mortality rate is 100%)
18 | CCS(=O)(=O)c1cc(-c2ccc(F)c(F)c2)cnc1-c1[nH]c2cc(C(F)(F)F)cnc2c1Cl [Compound 1-126] | A (the control rate is 100%) | A (the corrected mortality rate is 100%) | A (the corrected mortality rate is 100%)
19 | CCS(=O)(=O)c1cc(-c2cc(F)c(F)c(F)c2)cnc1-c1[nH]c2cc(C(F)(F)F)cnc2c1Cl [Compound 1-127] | A (the control rate is 100%) | A (the corrected mortality rate is 100%) | A (the corrected mortality rate is 100%)
20 | CCS(=O)(=O)c1cc(-c2ccc(C(=O)OC)cc2)cnc1-c1[nH]c2cc(C(F)(F)F)cnc2c1Cl [Compound 1-128] | A (the control rate is 100%) | A (the corrected mortality rate is 100%) | A (the corrected mortality rate is 100%)
21 | CCS(=O)(=O)c1cc(-c2ccc(C(C)C)cc2)cnc1-c1[nH]c2cc(C(F)(F)F)cnc2c1Cl [Compound 1-129] | A (the control rate is 100%) | A (the corrected mortality rate is 100%) | A (the corrected mortality rate is 100%)
22 | CCS(=O)(=O)c1cc(-c2ccc(OC(C)C)c(Cl)c2)cnc1-c1[nH]c2cc(C(F)(F)F)cnc2c1Cl [Compound 1-130] | A (the control rate is 100%) | A (the corrected mortality rate is 100%) | A (the corrected mortality rate is 100%)
23 | CCS(=O)(=O)c1ccc(-n2cncn2)nc1-c1[nH]c2cc(C(F)(F)F)cnc2c1Cl [Compound 2-74] | A (the control rate is 100%) | A (the corrected mortality rate is 100%) | A (the corrected mortality rate is 100%)
24 | CCSc1ccc(Cl)nc1-c1[nH]c2cc(C(F)(F)F)cnc2c1Cl [Compound 2-93] | A (the control rate is 100%) | A (the corrected mortality rate is 100%) | A (the corrected mortality rate is 100%)
25 | C=Cc1c(-c2ncc(C(F)(F)F)cc2S(=O)(=O)CC)n(C(=O)OC(C)(C)C)c2cc(C(F)(F)F)cnc12 [Compound 3-1] | A (the control rate is 100%) | A (the corrected mortality rate is 100%) | A (the corrected mortality rate is 100%)
